{"source": "PubChem BioAssay AID246", "about": "(DTP/NCI, 2004)", "test_system": "BDF1 mice, P1081 chloroleukemia ip, survival T/C", "assay": "NCI In Vivo Anticancer Drug Screen. Data for tumor model P1081 Chloroleukemia (intraperitoneal) in B6D2F1 (BDF1) mice", "details": "T/C endpoint: mean survival time, vehicle: saline, higher T/C = longer survival", "experimental": "The antitumor activity of compounds was measured in mice bearing transplantable tumors. Survival or tumor size were measured and the results are expressed as the measurement made in the treated group (T) divided by the measurement made in the vehicle treated control group (C). The tumor model used in this assay is P1081 Chloroleukemia (intraperitoneal) in B6D2F1 (BDF1) mice", "note": "The list shows only some results of the screen, not a fair sample: its compounds were picked by chemical class. Other doses and runs of a compound may be missing. T/C gives the treated animals as a percentage of the vehicle group. For survival time, this PubChem deposit counts one and a half times the control or more as active, and values a quarter to a half above the control carry no call in these data; other NCI protocols may use other cut-offs. Some entries show no survivor count and are marked so; the dose need not have been tolerated. Schedules are NCI's codes, read here as Q, the interval in days (D) or hours (H), X, the number of doses. Some entries hold several experiments; the values are given in rising order. Some schedules carry Z or #; the key to these is not given."}
{"smiles": "CN(CCCl)CCCl", "values": [{"measurement": "T/C", "setting": "dose: 0.13 mg/kg/injection, schedule: Q01DX010 (ip)", "value": "100 [survivor count not shown] and 145 % of control [survivor count not shown]"}, {"measurement": "T/C", "setting": "dose: 0.25 mg/kg/injection, schedule: Q01DX010 (ip)", "value": "95 [survivor count not shown] and 115 % of control [survivor count not shown]"}, {"measurement": "T/C", "setting": "dose: 0.5 mg/kg/injection, schedule: Q01DX010 (ip)", "value": "90 % of control [survivor count not shown]"}, {"measurement": "T/C", "setting": "dose: 15.7 micrograms/kg/injection, schedule: Q01DX Z (ip)", "value": "148 % of control [survivor count not shown]"}, {"measurement": "T/C", "setting": "dose: 31.2 micrograms/kg/injection, schedule: Q01DX Z (ip)", "value": "98 % of control [survivor count not shown]"}, {"measurement": "T/C", "setting": "dose: 31.5 micrograms/kg/injection, schedule: Q01DX Z (ip)", "value": "151 % of control [survivor count not shown]"}, {"measurement": "T/C", "setting": "dose: 63.0 micrograms/kg/injection, schedule: Q01DX Z (ip)", "value": "158 % of control [survivor count not shown]"}]}
